Assay results: PubChem BioAssay AID1487 (National Center for Advancing Translational Sciences (NCATS), 2009)
Some of the results follow. Shown are side measurements of this screen, not its main read-out; they come without a call. Most of these compounds were active or inconclusive in the main read-out, so they are no random draw. Potencies come from curve fits of mixed quality, noted in brackets.

Assay: qHTS Assay for Modulators of Lamin A Splicing
Settings: HeLa LMNA splicing GFP/RFP minigene ratio, 48 h
Outline: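 S3 HeLa stable clones carrying a lamin A-EGFP splicing minigene plus DsRed2 were seeded at 600 cells/well in Opti-MEM with 2% FBS, pin-dosed and incubated 48 h at 37°C. Acumen cytometry (488 nm) gave the GFP/RFP total-intensity ratio.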

[1] = measured here: RFP viability control channel
[2] = measured here: GFP splicing reporter channel

SMILES | AC50 [1] | AC50 [2]
CN(C(=O)C1CCN(S(=O)(=O)c2cccs2)CC1)c1ccccc1 | 12.6 µM [rising, single point] | –
CCCCNC(=O)CCCCCn1c(=O)[nH]c2ccccc2c1=O | – | 0.00891 µM [rising, full curve, poor fit]
CCCOc1ccc(C2C(C(=O)/C=C/c3ccco3)=C(O)C(=O)N2CCN2CCOCC2)cc1OC (configuration not stated) | – | 0.0316 µM [rising, single point]
Cc1cc(C(=O)CSc2nnc(-c3ccc(F)cc3)o2)c(C)n1CC1CCCO1 (configuration not stated) | 12.6 µM [rising, partial curve] | 10 µM [rising, partial curve]
COCCNC(=O)C(c1cccs1)N(C(=O)Cn1nnc2ccccc21)c1ccc2c(c1)OCO2 (configuration not stated) | 0.251 µM [rising, full curve] | –
CC/C=C\C/C=C\C/C=C\CCCCCCCC(=O)O | 22.4 µM [rising, single point] | 17.8 µM [rising, single point]
Nn1c(Nc2ccccc2)nc2sc3c(c2c1=O)CCC3 | 11.2 µM [rising, partial curve] | –
Cc1ccc(C(C)C)c(O)c1 | 0.794 µM [falling, single point] | 0.316 µM [falling, partial curve, poor fit]
CCOC(=O)c1c(NC(=O)COC(=O)CNC(=O)c2ccco2)sc(C)c1C | 3.98 µM [rising, partial curve] | –
CCC1=[N+](CC(=O)c2ccc(C)cc2)CCn2cccc21 | 28.2 µM [rising, partial curve] | 22.4 µM [rising, partial curve, poor fit]
O=C(CN1CCSC1=NCc1ccccc1)c1ccc(Cl)cc1 | 31.6 µM [rising, single point] | –
CCc1ccc(/C=N/n2c(C)cc(C)c(C#N)c2=O)cc1 | 0.01 µM [rising, full curve, poor fit] | –
COc1ccc(-c2cn3nc(N4CCCC(C(=O)NCc5ccc(Cl)cc5)C4)sc3n2)cc1 (configuration not stated) | 5.01 µM [falling, partial curve, poor fit] | 15.8 µM [falling, partial curve, poor fit]
O=C(NC1CC1)C1CCN(c2ccc(S(=O)(=O)N3CCOCC3)cc2)CC1 | 10 µM [rising, partial curve, poor fit] | –
C/C(=N/NC(=S)Nc1ccccc1)c1ccc2c(c1)OCO2 | 35.5 µM [rising, single point] | –
COc1cc(O)c(C(=O)c2ccccc2)cc1O | 22.4 µM [falling, single point] | 17.8 µM [falling, single point]
Cc1c(C(=O)NCc2cccc(Cl)c2)sc2nc3n(c(=O)c12)CCCC3 | 0.0158 µM [falling, full curve, poor fit] | –
Cc1ccc2c(c1)c(C)c(C)n2CC(O)Cn1nc(C)c(Br)c1C (configuration not stated) | 15.8 µM [rising, partial curve] | 20 µM [rising, partial curve]
Cc1ccccc1-c1nnc(SCC(=O)N(CC(C)C)c2c(N)n(CC(C)C)c(=O)[nH]c2=O)n1C | – | 0.02 µM [rising, full curve, poor fit]
C=CCOC(=O)C1=C(C)NC(=O)NC1/C=C/c1ccccc1OC (configuration not stated) | – | 0.2 µM [falling, full curve, poor fit]
COc1ccc([N+](=O)[O-])cc1NC(=O)CSCc1cc(C)cc(C)c1 | 12.6 µM [rising, partial curve] | –
CCN(CC)CCCNC(=O)c1ccc(Cn2c(SCc3ccccc3)nc3cccnc32)cc1 | – | 39.8 µM [falling, partial curve, poor fit]
Cn1c(=O)n(Cc2c(F)cccc2Cl)c(=O)c2c1nc1n2CCN1c1ccc(F)cc1 | 2.24 µM [rising, full curve, poor fit] | –
Nc1ccc2nc(-c3ccccc3)sc2c1 | – | 0.398 µM [rising, full curve, poor fit]
Cc1cc(CNC(=O)[C@H](C)[C@@H]2C[C@@]2(C)[C@@H](NC(=O)OCc2ccccc2)c2ccccc2)nn1C | 0.112 µM [rising, full curve, poor fit] | –
O=C(CN1CCN(CCC(=O)Nc2ccccc2F)CC1)Nc1ccc(Cl)cc1 | 17.8 µM [rising, single point] | 12.6 µM [rising, single point]
COc1ccc2[nH]cc(CCNc3ncnc4ccc(-c5c(C)noc5C)cc34)c2c1 | – | 35.5 µM [falling, single point]
Nc1nnc(-c2cc3c(ccc4ccccc43)oc2=O)s1 | 10 µM [rising, partial curve, poor fit] | –

SMILES | AC50 [1] | AC50 [2]
O=C1c2oc3ccc(Cl)cc3c(=O)c2C(c2ccco2)N1CCN1CCOCC1 (configuration not stated) | 35.5 µM [rising, single point] | –
CCN1CCN(c2ccc([N+](=O)[O-])c(Sc3nc4ccccc4[nH]3)c2)CC1 | 8.91 µM [rising, partial curve] | 31.6 µM [falling, single point]
CC(C)Oc1cccc(C(=O)Nc2ccc(Br)cc2F)c1 | 35.5 µM [rising, single point] | 22.4 µM [rising, partial curve, poor fit]
COc1ccc(C2=NN(c3nc4ccccc4s3)C(=O)/C2=C\N(C)C)cc1 | 0.631 µM [rising, full curve, poor fit] | –
Cc1nn(CCC#N)c(NC(=O)c2ccccc2)c1P(=O)(Nc1ccc(Br)cc1)N1CCOCC1 (configuration not stated) | 0.0316 µM [falling, full curve, poor fit] | 0.708 µM [falling, full curve]
Cc1ccc(Oc2nnc(-c3ccccc3)c3ccccc23)cc1 | 17.8 µM [falling, partial curve] | 22.4 µM [falling, single point]
COc1ccc(Br)cc1CNC(=O)C1CCN(S(=O)(=O)N2CCC(C)CC2)CC1 | 35.5 µM [rising, single point] | 35.5 µM [rising, single point]
CO/N=C/c1cn(-c2ccc(Cl)cc2)nn1 | – | 22.4 µM [rising, single point]
CNCCOc1ccccc1OC(C)C | 7.08 µM [falling, full curve, poor fit] | –
Cc1ccccc1OCCc1c(C)[nH]c(=S)[nH]c1=O | – | 0.0708 µM [rising, full curve, poor fit]
CC(NC(=O)CC(c1ccccc1)c1cc(Cl)ccc1O)c1ccccc1 (configuration not stated) | 35.5 µM [rising, partial curve] | 14.1 µM [rising, partial curve]
CCc1ccc(/C=C/c2c[nH]c3ccccc23)[n+](CC)c1 | 2.82 µM [rising, full curve] | 1 µM [rising, full curve]
COc1cc2c(cc1OC)CN(Cc1cc(=O)oc3c(C)c(C)ccc13)CC2 | 35.5 µM [rising, single point] | –
O=C(/C=C/c1ccc2c(c1)OCCCO2)c1ccc2ccccc2c1O | 35.5 µM [falling, single point] | –
Cc1ccc(N(C(=O)c2cc3ccccc3oc2=O)C2C=CS(=O)(=O)C2)cc1 (configuration not stated) | 10 µM [rising, partial curve] | –
O=C(N=Nc1c(O)[nH]c2ccccc12)c1cc(NS(=O)(=O)c2cccs2)cc(NS(=O)(=O)c2cccs2)c1 | 11.2 µM [falling, single point] | –
O=C(/C=C\c1ccc2c(c1)OCO2)Nc1c2c(nn1-c1ccc(Cl)cc1)CSC2 | 17.8 µM [rising, partial curve] | 10 µM [rising, partial curve, poor fit]
COC(=O)CNC(c1ccccc1Cl)c1cc(Br)ccc1NC(=O)CCN1CCOCC1 (configuration not stated) | 22.4 µM [falling, single point] | 15.8 µM [falling, single point]
COc1ccc(C(=O)Nc2ccc(N3CCC(C)CC3)cc2)cc1Br | 0.0708 µM [rising, full curve, poor fit] | –
CCOC(=O)c1cc2c(ccn2C)n1CC(=O)N1CCN(c2ccccc2OC)CC1 | 35.5 µM [rising, single point] | –
Cc1ccc(NC(=O)c2ccc(C(C)(C)C)cc2)cc1[N+](=O)[O-] | 35.5 µM [rising, single point] | 12.6 µM [rising, partial curve]
O=C(Nc1sc2c(c1C(=O)O)CCC2)c1cccs1 | 12.6 µM [rising, single point] | 10 µM [rising, partial curve, poor fit]
Oc1c(C(c2ccccn2)N2CCOCC2)ccc2cccnc12 (configuration not stated) | 0.891 µM [falling, full curve] | 0.891 µM [falling, full curve]
O=C(C1CCCN(S(=O)(=O)c2cccc3nonc23)C1)N1CCC(Cc2ccccc2)CC1 (configuration not stated) | 11.2 µM [rising, partial curve] | 1.58 µM [rising, full curve, poor fit]
O=C(Nc1ccccc1N1CCN(c2ccccc2)CC1)c1cccc(F)c1 | 22.4 µM [rising, single point] | –
COc1cc(C)nc(N2CCCC(C(=O)Nc3cccc(Cl)c3C)C2)n1 (configuration not stated) | 4.47 µM [rising, single point] | –
N=C(N)SCc1cn(-c2ccccc2)nc1-c1ccc(Br)cc1 | 8.91 µM [falling, partial curve, poor fit] | 0.355 µM [falling, partial curve, poor fit]

In the list so far, 2 have a cyano group.
SMILES | AC50 [1] | AC50 [2]
CCc1ccc(/C=N/n2c(C)cc(C)c(C#N)c2=O)cc1 | 0.01 µM [rising, full curve, poor fit] | –
Cc1nn(CCC#N)c(NC(=O)c2ccccc2)c1P(=O)(Nc1ccc(Br)cc1)N1CCOCC1 (configuration not stated) | 0.0316 µM [falling, full curve, poor fit] | 0.708 µM [falling, full curve]
